Holding throughout (assay): pull-down; His-tagged TOB subunit purified from isolated N. crassa mitochondria on Ni-NTA resin (as in ref. 16); eluate run on BNGE, or BNGE then SDS-PAGE (two dimensions), and blotted with antibodies to Tob55, Tob38, Tob37 or Mdm10
Experiment [1] has as its target T1, His-tagged Tob37 (strain Tob37HT) (Neurospora crassa) (UniProt Q7SFC4).
T1 sequence: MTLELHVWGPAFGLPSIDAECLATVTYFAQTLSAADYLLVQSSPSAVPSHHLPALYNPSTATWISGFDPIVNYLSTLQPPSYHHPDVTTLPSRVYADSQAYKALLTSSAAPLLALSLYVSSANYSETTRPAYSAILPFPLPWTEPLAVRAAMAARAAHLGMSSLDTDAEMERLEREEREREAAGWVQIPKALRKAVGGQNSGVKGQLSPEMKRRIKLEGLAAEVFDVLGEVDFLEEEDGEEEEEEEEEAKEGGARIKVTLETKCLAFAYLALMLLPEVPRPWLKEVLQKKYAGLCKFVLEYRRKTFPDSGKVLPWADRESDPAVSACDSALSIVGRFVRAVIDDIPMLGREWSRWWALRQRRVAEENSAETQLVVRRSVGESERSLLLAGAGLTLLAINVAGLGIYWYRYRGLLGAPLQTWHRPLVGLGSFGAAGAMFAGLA

In experiment [2] the target is T2, His-tagged Tob38 (strain Tob38HT) (Neurospora crassa) (UniProt V5IPB4).
T2 sequence: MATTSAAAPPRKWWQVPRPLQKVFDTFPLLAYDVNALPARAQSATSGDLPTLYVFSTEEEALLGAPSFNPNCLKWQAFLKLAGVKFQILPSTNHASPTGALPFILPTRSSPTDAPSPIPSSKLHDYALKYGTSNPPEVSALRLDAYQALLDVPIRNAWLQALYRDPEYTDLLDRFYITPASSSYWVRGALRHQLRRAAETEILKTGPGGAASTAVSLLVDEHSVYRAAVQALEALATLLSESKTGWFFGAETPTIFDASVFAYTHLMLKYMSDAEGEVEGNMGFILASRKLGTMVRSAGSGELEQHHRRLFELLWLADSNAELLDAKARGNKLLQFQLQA

For experiment [3], the target named is His-tagged intermediate Tob55 (strain Tob55 Int HT) (Neurospora crassa).
Experiment [4] concerns the target His-tagged short Tob55 (strain Tob55 Short HT) (Neurospora crassa).
Experiment [5] concerns the target His-tagged long Tob55 (strain Tob55 Long HT) (Neurospora crassa).
Experiment [6] addresses His-tagged Tob55 (strain Tob55HT) (Neurospora crassa).

These results are taken from publication PMC3182244.

No constants are given. Whether binding was seen depends on the method and setting. Binding seen in cells or lysates may run through a third protein. Binding calls can cover weak binding; strength is not graded here. For some assays here: Tags and fused reporters may be left off the sequences shown.

For the molecule Tob55, the binding result in experiment [1] and in experiment [2] was “binds” in each case.

B1: Tob38 (protein, UniProt V5IPB4 1-340)
chain: MATTSAAAPPRKWWQVPRPLQKVFDTFPLLAYDVNALPARAQSATSGDLPTLYVFSTEEEALLGAPSFNPNCLKWQAFLKLAGVKFQILPSTNHASPTGALPFILPTRSSPTDAPSPIPSSKLHDYALKYGTSNPPEVSALRLDAYQALLDVPIRNAWLQALYRDPEYTDLLDRFYITPASSSYWVRGALRHQLRRAAETEILKTGPGGAASTAVSLLVDEHSVYRAAVQALEALATLLSESKTGWFFGAETPTIFDASVFAYTHLMLKYMSDAEGEVEGNMGFILASRKLGTMVRSAGSGELEQHHRRLFELLWLADSNAELLDAKARGNKLLQFQLQA
Consider B1, for which the binding result in experiment [3], in experiment [4], in experiment [5] and in experiment [6] was “binds” each time.

B2: Tob37 (protein, UniProt Q7SFC4 1-442)
chain: MTLELHVWGPAFGLPSIDAECLATVTYFAQTLSAADYLLVQSSPSAVPSHHLPALYNPSTATWISGFDPIVNYLSTLQPPSYHHPDVTTLPSRVYADSQAYKALLTSSAAPLLALSLYVSSANYSETTRPAYSAILPFPLPWTEPLAVRAAMAARAAHLGMSSLDTDAEMERLEREEREREAAGWVQIPKALRKAVGGQNSGVKGQLSPEMKRRIKLEGLAAEVFDVLGEVDFLEEEDGEEEEEEEEEAKEGGARIKVTLETKCLAFAYLALMLLPEVPRPWLKEVLQKKYAGLCKFVLEYRRKTFPDSGKVLPWADRESDPAVSACDSALSIVGRFVRAVIDDIPMLGREWSRWWALRQRRVAEENSAETQLVVRRSVGESERSLLLAGAGLTLLAINVAGLGIYWYRYRGLLGAPLQTWHRPLVGLGSFGAAGAMFAGLA
B2: the binding result in experiment [3], in experiment [4], in experiment [5] and in experiment [6] was “binds” in each case.

B3: Mdm10 (protein, UniProt Q7SBE0 1-480)
chain: MREFMNYITNAFYGATGWNEDNKYNELNATSRELIDFPLPRGLRLTLSSLATPHFATSYQLGSVGVVDGSISYLHSSIPLTHIAAQSDKIPLPALLRCYRRLHDLRSPGQQHYILDADPLSGLPPPPQSARALLGAASDAAVAGGALDGGNTDQDLGIYTHSLLYGRLYLPKSLLEGMIIKRFTQALQVQVRAVSEQSLRNGGTILGLVQYDKGKYGLEGLYSTDGGLLGFRGLYNFGGDASSSTCDPWTPTPGENNNNNNNNNNNNNGNAQAGEKERIYGRFSVGGELYYGTLNKSGGMSLGARFATLPAHRGTPLTATLTINPLMGNINATYALLAREYCSLATRVDFNVYSYESEWAVGMELWSNRRPAGFLLGASPSNDFEPEPHPPRKKERSFQAKMEWRLDDPEPEPEPQPTPKTRKNDEYKGVLKARLDNNLRMGLLWEGRAKSLIFSIGTGIDLHKLGEPFRSLGLEVQYSS
Consider B3, for which the binding entry in experiment [6] was “binds”.
